No constants are given. Whether binding was seen depends on the method and setting. Binding seen in cells or lysates may run through a third protein. A result given as binding can be weak or reduced; the word gives no strength.
T1: manganese superoxide dismutase (rat (endogenous in neonatal Sprague-Dawley rat cardiomyocytes)) (UniProt P07895)
T1 sequence: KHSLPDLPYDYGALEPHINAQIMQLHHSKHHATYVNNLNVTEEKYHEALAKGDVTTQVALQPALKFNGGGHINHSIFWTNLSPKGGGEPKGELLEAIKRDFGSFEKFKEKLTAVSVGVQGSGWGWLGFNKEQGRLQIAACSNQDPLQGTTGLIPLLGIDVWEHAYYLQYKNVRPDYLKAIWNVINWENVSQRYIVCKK


Tests used:
[1] = molecular target: T1, manganese superoxide dismutase (rat (endogenous in neonatal Sprague-Dawley rat cardiomyocytes)); test: co-IP; anti-MnSOD antibody on Sepharose beads, overnight at 4°C, immunocomplex blotted for p38β; lysates of rat cardiomyocytes treated as indicated (H/R, E2)
[2] = molecular target: p38β mitogen activated protein kinase (rat (endogenous in neonatal Sprague-Dawley rat cardiomyocytes)); test: co-IP; anti-p38β antibody on Sepharose beads, overnight at 4°C, immunocomplex blotted for MnSOD; lysate of rat cardiomyocytes after H/R with E2 at 10 nM; lysis buffer 50 mM Tris HCl pH 7.5, 100 mM NaCl, 5 mM EDTA, 1% Triton X-100
[3] = molecular target: p38β mitogen activated protein kinase (rat (endogenous in neonatal Sprague-Dawley rat cardiomyocytes)); test: co-IP; anti-p38β antibody on Sepharose beads, immunocomplex blotted for MnSOD; lysate of rat cardiomyocytes after H/R without E2
[4] = molecular target: p38β mitogen activated protein kinase (rat (endogenous in neonatal Sprague-Dawley rat cardiomyocytes)); test: co-IP; anti-p38β antibody on Sepharose beads, immunocomplex blotted for MnSOD; lysate of rat cardiomyocytes at normoxia (baseline)

| binding [1] | binding [2] | binding [3] | binding [4] | Molecule |
| --- | --- | --- | --- | --- |
| binds |  |  |  | p38β mitogen activated protein kinase (enzyme) |
|  | binds | binds weakly | binds weakly | manganese superoxide dismutase (enzyme, UniProt P07895 25-222) KHSLPDLPYDYGALEPHINAQIMQLHHSKHHATYVNNLNVTEEKYHEALAKGDVTTQVALQPALKFNGGGHINHSIFWTNLSPKGGGEPKGELLEAIKRDFGSFEKFKEKLTAVSVGVQGSGWGWLGFNKEQGRLQIAACSNQDPLQGTTGLIPLLGIDVWEHAYYLQYKNVRPDYLKAIWNVINWENVSQRYIVCKK |
